Our source for the NP40-soluble protein abundance values is the supplement of paper PMC6411743.

By UniProt entry, the sequences of proteins in these tests, tags left out. Where a name states a change or a piece, a line headed by the entry shows the natural chain unless it says otherwise.
UniProt Q8TDW0: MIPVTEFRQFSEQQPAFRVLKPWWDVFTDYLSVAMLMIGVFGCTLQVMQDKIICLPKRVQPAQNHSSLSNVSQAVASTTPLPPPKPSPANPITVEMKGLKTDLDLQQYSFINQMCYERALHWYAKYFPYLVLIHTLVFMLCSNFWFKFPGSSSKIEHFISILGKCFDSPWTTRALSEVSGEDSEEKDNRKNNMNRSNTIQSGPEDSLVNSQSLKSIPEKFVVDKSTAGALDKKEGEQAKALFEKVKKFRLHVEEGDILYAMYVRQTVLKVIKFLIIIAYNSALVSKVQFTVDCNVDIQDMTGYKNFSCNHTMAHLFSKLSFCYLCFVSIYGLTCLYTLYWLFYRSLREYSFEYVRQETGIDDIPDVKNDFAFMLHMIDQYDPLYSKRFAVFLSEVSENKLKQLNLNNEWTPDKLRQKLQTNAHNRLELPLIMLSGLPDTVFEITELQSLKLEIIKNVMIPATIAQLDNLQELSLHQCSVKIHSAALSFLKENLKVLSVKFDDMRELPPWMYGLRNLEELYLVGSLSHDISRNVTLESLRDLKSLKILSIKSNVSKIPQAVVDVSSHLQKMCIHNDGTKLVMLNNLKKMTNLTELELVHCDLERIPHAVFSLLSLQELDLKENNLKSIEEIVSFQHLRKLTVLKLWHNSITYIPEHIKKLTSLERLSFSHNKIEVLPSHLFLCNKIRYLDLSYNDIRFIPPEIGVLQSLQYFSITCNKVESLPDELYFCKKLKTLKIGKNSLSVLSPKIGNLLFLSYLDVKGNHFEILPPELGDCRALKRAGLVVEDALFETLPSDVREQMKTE
UniProt Q969R8: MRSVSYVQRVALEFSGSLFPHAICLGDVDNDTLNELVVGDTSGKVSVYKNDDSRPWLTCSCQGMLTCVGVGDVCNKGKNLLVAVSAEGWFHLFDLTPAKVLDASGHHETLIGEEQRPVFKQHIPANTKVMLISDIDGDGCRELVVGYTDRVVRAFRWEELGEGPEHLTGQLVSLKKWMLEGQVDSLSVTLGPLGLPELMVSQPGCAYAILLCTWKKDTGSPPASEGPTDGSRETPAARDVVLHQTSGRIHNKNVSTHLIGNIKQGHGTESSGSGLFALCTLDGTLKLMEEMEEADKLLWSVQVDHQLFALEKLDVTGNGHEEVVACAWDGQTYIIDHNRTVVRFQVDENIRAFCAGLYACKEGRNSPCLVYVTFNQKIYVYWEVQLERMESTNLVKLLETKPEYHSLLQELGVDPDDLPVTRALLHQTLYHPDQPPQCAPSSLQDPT
UniProt Q92621: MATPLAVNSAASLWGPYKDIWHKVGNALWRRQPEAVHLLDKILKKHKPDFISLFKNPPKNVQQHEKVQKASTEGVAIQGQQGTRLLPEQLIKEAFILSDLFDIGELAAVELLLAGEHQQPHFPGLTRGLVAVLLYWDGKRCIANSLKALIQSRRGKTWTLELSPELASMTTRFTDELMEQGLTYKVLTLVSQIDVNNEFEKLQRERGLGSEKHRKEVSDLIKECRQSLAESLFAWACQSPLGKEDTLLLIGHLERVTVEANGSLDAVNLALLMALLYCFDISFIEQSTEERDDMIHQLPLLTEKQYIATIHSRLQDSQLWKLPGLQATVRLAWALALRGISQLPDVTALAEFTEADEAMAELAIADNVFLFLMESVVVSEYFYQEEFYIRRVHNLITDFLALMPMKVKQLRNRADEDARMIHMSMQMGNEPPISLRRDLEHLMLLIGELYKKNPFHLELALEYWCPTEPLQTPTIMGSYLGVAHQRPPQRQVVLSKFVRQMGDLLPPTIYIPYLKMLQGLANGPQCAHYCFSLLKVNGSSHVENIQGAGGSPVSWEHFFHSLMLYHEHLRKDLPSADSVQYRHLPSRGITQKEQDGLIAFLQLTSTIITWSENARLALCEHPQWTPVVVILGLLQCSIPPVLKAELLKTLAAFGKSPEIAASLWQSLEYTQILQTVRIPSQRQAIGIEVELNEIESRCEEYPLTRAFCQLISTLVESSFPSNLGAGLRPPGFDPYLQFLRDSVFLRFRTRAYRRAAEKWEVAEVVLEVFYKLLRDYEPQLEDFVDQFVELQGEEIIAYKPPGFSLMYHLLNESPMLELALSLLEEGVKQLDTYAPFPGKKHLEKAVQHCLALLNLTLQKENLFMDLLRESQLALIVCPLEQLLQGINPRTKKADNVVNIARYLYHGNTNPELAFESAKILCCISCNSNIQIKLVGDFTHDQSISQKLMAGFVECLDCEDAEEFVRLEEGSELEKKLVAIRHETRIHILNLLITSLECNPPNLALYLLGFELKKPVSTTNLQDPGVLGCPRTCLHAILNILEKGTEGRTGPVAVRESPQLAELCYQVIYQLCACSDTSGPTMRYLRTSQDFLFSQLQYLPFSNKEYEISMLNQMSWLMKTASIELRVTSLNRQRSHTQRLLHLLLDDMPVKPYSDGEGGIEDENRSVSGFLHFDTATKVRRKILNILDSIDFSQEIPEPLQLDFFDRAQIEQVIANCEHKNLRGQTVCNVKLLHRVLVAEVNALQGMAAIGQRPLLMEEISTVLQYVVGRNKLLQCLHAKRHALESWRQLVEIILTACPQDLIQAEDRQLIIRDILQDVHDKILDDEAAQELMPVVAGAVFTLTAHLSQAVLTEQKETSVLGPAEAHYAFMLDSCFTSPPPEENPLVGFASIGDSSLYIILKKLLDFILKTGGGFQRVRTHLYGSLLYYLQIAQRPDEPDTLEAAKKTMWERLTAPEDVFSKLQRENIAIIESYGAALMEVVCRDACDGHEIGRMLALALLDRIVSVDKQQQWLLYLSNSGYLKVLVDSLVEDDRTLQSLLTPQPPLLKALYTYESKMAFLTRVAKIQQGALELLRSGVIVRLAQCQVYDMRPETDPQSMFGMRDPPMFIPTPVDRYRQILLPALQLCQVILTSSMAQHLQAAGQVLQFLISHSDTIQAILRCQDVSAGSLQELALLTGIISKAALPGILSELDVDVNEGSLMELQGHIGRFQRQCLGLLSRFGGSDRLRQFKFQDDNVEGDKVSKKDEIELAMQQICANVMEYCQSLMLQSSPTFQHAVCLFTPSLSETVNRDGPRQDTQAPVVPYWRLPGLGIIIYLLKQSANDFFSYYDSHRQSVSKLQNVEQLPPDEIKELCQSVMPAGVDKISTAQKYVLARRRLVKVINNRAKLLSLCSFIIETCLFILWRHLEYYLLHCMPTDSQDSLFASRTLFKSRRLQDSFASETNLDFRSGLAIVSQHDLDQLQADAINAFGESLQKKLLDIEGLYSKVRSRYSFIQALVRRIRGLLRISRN
UniProt Q8TCA0: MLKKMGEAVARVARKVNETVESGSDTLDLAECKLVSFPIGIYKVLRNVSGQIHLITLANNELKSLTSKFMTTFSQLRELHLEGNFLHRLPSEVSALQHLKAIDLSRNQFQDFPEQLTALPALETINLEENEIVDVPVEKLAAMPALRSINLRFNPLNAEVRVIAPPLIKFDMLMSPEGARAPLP
UniProt Q92572: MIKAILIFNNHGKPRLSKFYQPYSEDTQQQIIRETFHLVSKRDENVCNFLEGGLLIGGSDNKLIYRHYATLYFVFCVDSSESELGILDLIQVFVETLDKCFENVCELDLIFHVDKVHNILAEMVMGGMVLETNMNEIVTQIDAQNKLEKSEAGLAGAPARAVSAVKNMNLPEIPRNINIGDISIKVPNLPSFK
UniProt Q8WVY7: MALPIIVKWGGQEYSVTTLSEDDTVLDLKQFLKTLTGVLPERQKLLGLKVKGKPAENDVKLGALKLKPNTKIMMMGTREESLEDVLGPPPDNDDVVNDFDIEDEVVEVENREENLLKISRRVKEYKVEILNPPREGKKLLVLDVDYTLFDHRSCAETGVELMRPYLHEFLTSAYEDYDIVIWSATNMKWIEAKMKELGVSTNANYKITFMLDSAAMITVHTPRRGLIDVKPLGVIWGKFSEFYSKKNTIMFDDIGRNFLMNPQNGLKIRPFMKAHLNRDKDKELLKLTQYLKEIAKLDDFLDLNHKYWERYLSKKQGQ
UniProt Q96AX2: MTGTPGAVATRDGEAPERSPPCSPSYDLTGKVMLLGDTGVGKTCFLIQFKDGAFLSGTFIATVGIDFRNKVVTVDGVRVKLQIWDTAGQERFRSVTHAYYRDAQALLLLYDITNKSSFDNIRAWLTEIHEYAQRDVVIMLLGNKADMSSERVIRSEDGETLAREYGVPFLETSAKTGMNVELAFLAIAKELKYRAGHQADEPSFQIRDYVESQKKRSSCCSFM
UniProt Q92947: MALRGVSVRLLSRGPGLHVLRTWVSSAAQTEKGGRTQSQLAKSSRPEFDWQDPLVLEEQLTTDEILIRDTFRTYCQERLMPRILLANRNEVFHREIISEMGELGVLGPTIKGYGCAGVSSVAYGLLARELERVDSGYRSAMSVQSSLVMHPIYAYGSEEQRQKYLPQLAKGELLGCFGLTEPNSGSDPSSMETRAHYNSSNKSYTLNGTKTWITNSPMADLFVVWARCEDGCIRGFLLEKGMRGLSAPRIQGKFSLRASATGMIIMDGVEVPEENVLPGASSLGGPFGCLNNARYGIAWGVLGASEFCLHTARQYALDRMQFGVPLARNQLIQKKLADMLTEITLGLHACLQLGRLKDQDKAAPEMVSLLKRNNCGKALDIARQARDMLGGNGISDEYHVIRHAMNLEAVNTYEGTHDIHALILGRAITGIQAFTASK
UniProt Q8TCF1: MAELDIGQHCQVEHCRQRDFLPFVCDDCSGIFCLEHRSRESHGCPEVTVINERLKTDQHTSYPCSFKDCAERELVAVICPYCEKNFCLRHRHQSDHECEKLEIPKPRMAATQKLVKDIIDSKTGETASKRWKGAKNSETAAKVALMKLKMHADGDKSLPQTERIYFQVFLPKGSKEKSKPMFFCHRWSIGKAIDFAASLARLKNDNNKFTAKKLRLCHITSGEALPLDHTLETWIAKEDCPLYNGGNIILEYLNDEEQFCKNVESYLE
UniProt Q8WUQ7: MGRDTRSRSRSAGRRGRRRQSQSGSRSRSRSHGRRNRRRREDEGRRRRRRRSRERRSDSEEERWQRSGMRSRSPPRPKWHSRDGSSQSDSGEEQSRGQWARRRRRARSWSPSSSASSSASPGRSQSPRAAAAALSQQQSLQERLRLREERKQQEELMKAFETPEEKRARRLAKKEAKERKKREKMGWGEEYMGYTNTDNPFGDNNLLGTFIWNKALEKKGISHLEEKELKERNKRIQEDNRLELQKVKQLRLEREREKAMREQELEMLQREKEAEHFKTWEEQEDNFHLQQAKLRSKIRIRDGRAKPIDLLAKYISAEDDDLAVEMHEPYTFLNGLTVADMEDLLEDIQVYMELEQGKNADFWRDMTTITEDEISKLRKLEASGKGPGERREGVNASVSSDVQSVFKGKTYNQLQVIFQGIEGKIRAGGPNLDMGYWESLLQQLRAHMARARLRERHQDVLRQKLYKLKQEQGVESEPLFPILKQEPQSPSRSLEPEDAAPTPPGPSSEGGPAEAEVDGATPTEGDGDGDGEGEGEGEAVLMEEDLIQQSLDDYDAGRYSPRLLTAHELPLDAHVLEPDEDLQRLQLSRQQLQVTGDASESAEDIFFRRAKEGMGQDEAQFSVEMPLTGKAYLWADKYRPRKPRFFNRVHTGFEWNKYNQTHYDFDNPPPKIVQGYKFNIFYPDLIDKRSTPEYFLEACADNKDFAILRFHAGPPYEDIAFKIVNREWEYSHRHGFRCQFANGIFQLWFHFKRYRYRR
UniProt Q92530: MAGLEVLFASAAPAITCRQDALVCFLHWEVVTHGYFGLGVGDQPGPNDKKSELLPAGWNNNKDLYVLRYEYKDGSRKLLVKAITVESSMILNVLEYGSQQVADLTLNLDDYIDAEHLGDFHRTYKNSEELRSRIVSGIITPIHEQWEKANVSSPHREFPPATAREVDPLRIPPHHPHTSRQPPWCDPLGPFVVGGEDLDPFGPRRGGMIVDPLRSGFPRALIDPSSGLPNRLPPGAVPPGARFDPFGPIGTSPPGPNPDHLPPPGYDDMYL

± gives the standard deviation of the averaged measurements. Only a part is listed here, and it is no random draw. Most entries show no effect beyond the scatter of the controls.

Compound in this test: Nc1ncnc2c1ncn2[C@@H]1O[C@H](COP(=O)(O)OP(=O)(O)OP(=O)(O)O)[C@@H](O)[C@H]1O [adenosine triphosphate]
Briefly: NP40-soluble protein abundance relative to vehicle (solubility fold change) (ratio); higher = more soluble protein in presence of ATP. To be noted: concentration: 0.1mM. The essentials:
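Crude Jurkat lysate, prepared by Dounce homogenisation, was exposed to eight concentrations from 0.1 to 10 mM for 10 min at room temperature and then 3 min at 37 °C. Solubilisation used 0.8% NP40 with benzonase for 60 min at 4 °C, followed by ultracentrifugation and TMT labelling of the supernatant for LC-MS/MS. After vsn normalisation of intensities, each value is the fold change against the detergent-processed vehicle within each replicate, across three independent experiments.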
Turning to LRRC8C (UniProt Q8TDW0), the NP40-soluble protein abundance was 1.05 ± 0.081. The same measure for ITFG2 (UniProt Q969R8): 1.02 ± 0.043. For MYST3 (UniProt Q92794), the NP40-soluble protein abundance worked out at 1.04 ± 0.026. As to NUP205 (UniProt Q92621), the NP40-soluble protein abundance worked out at 1.06 ± 0.081.

As for TRUB1 (UniProt Q8WWH5), the NP40-soluble protein abundance turned out to be 1.03 ± 0.087.

CUL5 (UniProt Q93034): the NP40-soluble protein abundance came to 1.06 ± 0.077. The figure for CCDC12 (UniProt Q8WUD4) is 0.847 ± 0.17. The figure for UniProt Q8TCA0 and related entries is 0.988 ± 0.026; for PHIP (UniProt Q8WWQ0) it is 1.02 ± 0.066. The same measure for UniProt Q92572: 0.993 ± 0.029; for OVCA2 (UniProt Q8WZ82): 0.989 ± 0.12; for UBLCP1 (UniProt Q8WVY7): 1.08 ± 0.079.

As for UniProt Q96AX2 and related entries, the NP40-soluble protein abundance turned out to be 1.06 ± 0.1. The figure for GCDH (UniProt Q92947) is 1.008 ± 0.0099; for UniProt Q8TD26 and related entries it is 1.06 ± 0.037; for UniProt Q8TDZ2 and related entries it is 1.02 ± 0.064.

Take TFB1M (UniProt Q8WVM0): the NP40-soluble protein abundance was 0.997 ± 0.047. The same measure for SECISBP2L (UniProt Q93073): 0.945 ± 0.13; for CHAC2 (UniProt Q8WUX2): 0.987 ± 0.048; for UniProt Q8TCF1 and related entries: 0.953 ± 0.069. The figure for NUDT8 (UniProt Q8WV74) is 0.978 ± 0.082; for UniProt Q96AY2 and related entries it is 1.09 ± 0.086. The same measure for UniProt Q8WUQ7 and related entries: 0.983 ± 0.032. As to UniProt Q8TF46 and related entries, the NP40-soluble protein abundance was determined as 0.951 ± 0.046.

In the case of UniProt Q8WYQ5 and related entries, the NP40-soluble protein abundance came to 1.03 ± 0.016. The same measure for UniProt Q92530 and related entries: 0.978 ± 0.086; for UBASH3B (UniProt Q8TF42): 1.03 ± 0.06.
